Out of some 52,000 sequences screened, about 210 (0.4%) were called active.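 The calls were made as follows: active = gene whose silencing raises cell survival under the drug, median off-target-corrected z-score across its silencing RNAs 2 or more; inactive = the rest.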 This is one part of the list.

The nature of the assay: Resistance to Poly (ADP-Ribose) Polymerase inhibitor: Gene Identification via Genome-wide siRNA Screen. The settings on record: mouse BRCA2 R2336H ES cells, olaparib, CellTiter-Glo viability; active compounds read high. Put shortly:
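Genome-wide siRNA screen (3 siRNAs/gene, 20 nM) in mouse ES cells carrying hypomorphic BRCA2 R2336H; olaparib 500 nM added 48 h post-transfection, CellTiter-Glo viability 72 h later. Normalized to plate-median negative control; MAD z-scores, gene median, seed-adjusted.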
In general terms: ATP-based viability assays read luminescence as a measure of living cells.
GGAGAUGCUCAUUUUGAUUTT against Mmp8: the z-score was inactive: 0.397. GGACUCCUACAUGAUUGCUTT against Gpr172b: the z-score was inactive: -0.335. The figure for “GCUGAGUGAAUCCACGUACTT against 2010001M09Rik” is inactive: 0.936. The figure for GGACUCCUAUGUGGGUGACTT against Actb is inactive: 0.88; for GAGGGAUAUGUGAAGCCUCTT against Mospd3 it is inactive: -1.38; for GGAAAGAAUCACAAGGAAATT against Wbp4 it is inactive: 1.38. For CCUUCCCUAAGAUCAGGCGTT against Gsdm3, the z-score is inactive: -0.0883.

“GGAAUACCUGCUUUUAUUUTT against 4930455C21Rik”: the z-score was inactive: 1.14. The figure for GGUGGCUAGCCAGACAAAATT against Rnf151 is inactive: -1.23; for “GGAAAAGCUACCUGUGUCATT against 1200009O22Rik” it is inactive: -1.35. The figure for GGAGUUCAAGGCCAAGGAATT against Atp6v1g1 is inactive: -1.9; for “CGGUGAGGAUUGUUGAGCUTT against D130060H24Rik” it is inactive: -0.705. The figure for “GGAGAGGAAUGGUGUGUUATT against 4931428D14Rik” is inactive: -0.16; for ACAAGAAACGUACAAGACATT against MGC103250 it is inactive: 1.29. In the case of GGACCUGGAAUUCGUCUGATT against Socs3, the z-score was inactive: -1.19. Under CCUUCUUAUAGGUUAACUGTT against Pde10a stands inactive: 0.808. Under GCAGUUUUAACUGGCCAUATT against Nr2f2 stands inactive: -0.57. In the case of GGACAGCAGCAACAACAUCTT against Dnase1l3, the z-score was inactive: -1.06.

Turning to “GGAGCUUGACAUUAAGGACTT against D14Ertd171e”, the z-score was inactive: -2.32. Under GCUUGACUUGUUUUUGGCATT against Nfib stands inactive: 1.26. Regarding CGAAUCAUGUGUUUGCACATT against Camkk2, the z-score was inactive: -0.414. The figure for GCUGAACGGUCUCAAACAGTT against Cdca3 is inactive: -2.24. Under “GGUUGUACUUGUUUUUCCUTT against 1810033A06Rik” stands inactive: -0.945.

Consider GCUUCGAGAGUUCAACAUCTT against Zmynd19, for which the z-score is inactive: 1.08. The figure for GCAGUCAUAACAGAGCAUCTT against Gtf2h3 is inactive: 1.13; for GGGCUUUGGAUGAACUGCATT against Cldn17 it is inactive: -0.46; for GCAGCACCUUUGUGGUUCCTT against Ins2 it is inactive: -0.904. Under GGAAAUCCAUCGUUAUUCUTT against Abca8a stands inactive: 1.03; under GCUACUAAAGGUUUUAGGATT against Rps6ka2, inactive: 1.45; under GCUAUGUUCACUAUCCCACTT against AI849156, inactive: 0.228. Under GGAGUUGUCUGUCUUUAAGTT against Inpp5a stands inactive: 1.64; under GCCAUUUGAGUAUGUUGCATT against DXImx50e, inactive: 0.0229. GGACAGCGACAAGAUUCCGTT against Sox4: the z-score was inactive: 0.264. The figure for GGAACUAGUUUUUAUACUCTT against Igfbp1 is inactive: 0.197. Under “GGUUAAAAAGGAUUUCAGCTT against E430026E19Rik” stands inactive: -0.177. The figure for GCCAAUGAACCGAUCUCUGTT against Ep400 is inactive: -1.49; for GCGAGUUUGUGCUACAAAATT against Htr7 it is inactive: -0.685; for GGAGACUAUUUCAUCUACUTT against Tnfsf15 it is inactive: 0.00701. For GCUCAUUCACACUUAAUCATT against Dock11, the z-score was inactive: 0.0746. For the sequence GGACCACCAUUCCAUCAGATT against Sema3d, the z-score is inactive: 1.84. Under CCAGGUCUAUUUUGCCAUUTT against Dnmbp stands inactive: 1.15; under GCACAUCGCAUUACUAACATT against Pabpc2, inactive: -0.219; under GGAGAUGCAGGUCUUCUUGTT against Acdc, inactive: -0.0242. Take GGCCGAGGAUGAAAUUGAGTT against Stk25: the z-score was inactive: 1.41.

In the case of GGUGGUCUACAGAAAAUUCTT against Ncf1, the z-score is inactive: 1.4. Under GGAAUAUUUUUUCUGGGAGTT against Ugt8 stands inactive: 0.863; under GGAAUACAUCUACAAAGAGTT against AA959601, inactive: 0.676; under GGAGUUUUGUGAACUAUGATT against Slc36a3, inactive: 2.17. Under GCAACAUUGCAUCUAUUUATT against Dbx1 stands inactive: 0.0186; under GGGUGUGUUGUAUCUCCCUTT against Cdh26, inactive: 1.89; under GGAUCCAAUCAGGAGAAAGTT against Lass4, inactive: -0.667. Turning to “GGCCAUGGUUCUAUAGGACTT against D430004I08Rik”, the z-score was inactive: 1.4. In the case of “CCGACAAACGCAAGGUGAUTT against 2900027G03Rik”, the z-score is inactive: -1.4.

As for GGAAUAUGUGCAGAAGCUGTT against Fgd2, the z-score was inactive: -0.21. Under “GGCUGACAAGGCCAAAUACTT against 1700012H17Rik” stands inactive: -1.13; under “CCUUAAGGCUGAUUGGGACTT against 1700080E11Rik”, inactive: 0.0648; under GGCACAGAAAAUCUCUGAUTT against Psmd3, inactive: -3.24. The figure for GGUAUUGACCAAGAAGAAATT against Taf12 is inactive: -1.94; for GGUAUUAUCUAACUCUAGCTT against Mftc it is inactive: 0.669; for GGAGAUGGCUAUAUUCUGATT against Lip1 it is inactive: 1.07. Under GGAAGUUCAUCAUGAUAUCTT against Cxadr stands inactive: 1.63; under GGUUCUUAUCUCUAUUCAGTT against Olfr1270, inactive: 0.79; under GCAGCAGAACUUUUUUGCCTT against Hif1an, inactive: 0.205. As for GCGAUCCAGGAGCUAUCAATT against Helb, the z-score was inactive: 0.0707. Under CCCAACUGUUCAGAAAAUATT against Olfr1212 stands inactive: -1.22; under GGUCAAUUGGAAAUAAGAATT against Hiat1, inactive: 0.936; under GCUAACAGCAUCCUUUUUGTT against V1rb1, inactive: -0.693.

The values above are taken from PubChem BioAssay AID1347423 (Functional Genomics Laboratory (NCATS/FGL), 2020).
